Data as given in patent publication US6420367B1, “Pyrimidine derivatives exhibiting antitumor activity” (Shionogo & Co., Ltd., priority 1998, dated 2002).
Values after ≈ are worked out from the molar mass of the structure shown. At least one structure is not confirmed: it was looked up by name or label, or the drawing left a doubt.

System: DT-C cells (pGV-P-transfected v-ki-ras-transformed NIH3T3 cells)
Experiment: Luciferase activity in control DT-C cells (IC50-C): non-specific transcription-inhibitory effect or cytotoxicity
Format: cell-based, mouse
Details: tested concentration nearest to 50% inhibition in DT-C cells; index of non-specific transcription inhibition or cytotoxicity
Text: Test Example 1 Inhibitory Effect Against Cellular Signaling Derived From Ras Oncogene Products
1) Establishment of Cell Lines Used in Assay
Based on the reporter plasmid (pGV-P (Toyo Ink, Japan)), in which luciferase gene was ligated to SV40-derived minimal promoter, we constructed a plasmid designated pRRE3-luc by inserting 3 copies of chemically synthesized oligonucleotides (Sequence: CAGGATATGACTCT, derived from mouse NVL-3 (M. A. Reddy et al.(1992)Mol. Endocrinol., 6, 1051)) into upstream of the promoter. v-ki-ras-transformed NIH3T3 cells (DT cells, provided by Dr. Makoto Noda (Kyoto Univ., School of medicine)) were transfected with this plasmid by liposome-mediated transfection and transfected cell lines stably incorporated and maintained each plasmid were obtained. We named pGV-P and pRRE3-transfected cell line as DT-C and DT-R, respectively and used in the assay described below.
2) Preparation of Samples
i) All the cell lines were cultured in Dulbecco's Modified Essential Medium (DMEM: 10% Fetal Calf Serum(FCS: Hyclone, USA)) including […] kanamycin (Meiji Seika, Japan) in humidified incubator under condition of 5% CO2 at 37° C.
ii) DT-C and DT-R cells were seeded at 2500 cells/well into flat-bottom 96 well multiplate (Sumitomo bakelite) and incubated for 24 hours.
iii) Test compounds were prepared as 1 mg/ml DMSO solution.
iv) The solution of test compounds were added to the culture. Tested compounds are used at the concentration from […] to 0.51 ng/ml with by 3-fold dilution.
v) After 24 hours, the culture supernatant was completely aspirated and […] of cell-lysing solution (PGC-50 (Toyo Ink, Japan)) was added before cells were dried up. In order to the cells were lysed completely, multiwell plates were left at room temperature for 10 to 30 min. The plates were wrapped up and stored at −20° C. till the day of measurement.
3) Measurement of Samples
i) Melt the samples by putting 96 well multiplate at 37° C. and add 90 μl/well 25 mM Tris (pH 7.5).
ii) Transfer 50 μl of the sample (110 μl) to the 96 well microplate for measurement (Microlite 1 (Dynatech)).
iii) Measure the samples by the luminometer, LUMINOUS CT9000D (Dia-Yatron, Japan). We used Pickagene luminescence kit PGL2000 or LT2.0 (Toyo Ink, Japan) as substrates for luminescence measurement (50 μl/well).
4) Judgment of the Results
i) The luciferase activity of DT-C cells and DT-R cells were plotted in the graph where the relative activity and the compound concentration were expressed as Y-axis and X-axis, respectively. We judged by the degree of dissociation between the activities of DT-C cells and DT-R cells as an index.
ii) Concretely, efficacy of the compound was expressed by two values described below.
b) Among the points of concentration tested, the concentration which is the nearest to 50% inhibition concentration at DT-C cells (IC50-C), was shown as an index of non-specific transcription-inhibitory effect or of cytotoxicity. In case of positive compounds, 50% inhibition concentration above the area of active concentration in DT-C cells was expressed as IC50-C.

Compound | IC50-C
CCCNC(=Nc1nc(C)ncc1CSc1nnc(-c2ccc(N)cc2)o1)NC [Compound A-148] | 10 µg/mL (≈ 24.2 µM)
CCNC(=Nc1nc(C)ncc1CSc1nnc(-c2ccc(N)cc2OC)o1)NCC [Compound A-141] | 10 µg/mL (≈ 22.6 µM)
CCNC(=Nc1ncncc1CSc1nnc(-c2ccc([N+](=O)[O-])cc2)o1)N(C)C [Compound A-190] | 10 µg/mL (≈ 23.3 µM)
CCCNC(=Nc1ncncc1CSc1nnc(-c2ccc(N)cc2)o1)NCC [Compound A-178] | 10 µg/mL (≈ 24.2 µM)
CCNC(=Nc1nc(C)ncc1CSc1nnc(-c2ccc(N)cc2OC)o1)NCC.Cl [Compound A-189] | 10 µg/mL
CCCCNC(=Nc1nc(C)ncc1CSc1nnc(-c2ccc(N)cc2)o1)NCCCC [Compound A-169] | 10 µg/mL (≈ 21.3 µM)
CCCNC(=Nc1nc(CC)ncc1CSc1nnc(-c2ccc(N)cc2)o1)NCCC [Compound A-139] | 10 µg/mL (≈ 22 µM)
CCNC(N)=Nc1nc(C)ncc1CSc1nnc(-c2ccc(N)cc2)o1 [Compound A-184] | 10 µg/mL (≈ 26 µM)
CCCNC(=Nc1nc(CC)ncc1CSc1nnc(-c2ccc([N+](=O)[O-])cc2)o1)NC [Compound A-150] | 10 µg/mL (≈ 21.9 µM)
CCNC(=Nc1nc(C)ncc1CSc1nnc(-c2ccc([N+](=O)[O-])cn2)o1)NCC [Compound D-45] | 10 µg/mL (≈ 22.5 µM)
CCCCNC(=Nc1nc(C)ncc1CSc1nnc(-c2ccc(N)cc2)o1)NCC [Compound A-180] | 10 µg/mL (≈ 22.7 µM)
CNC(=Nc1nc(C)ncc1CSc1nnc(-c2ccc(N)cc2)o1)NC(C)C [Compound A-171] | 10 µg/mL (≈ 24.2 µM)
Cc1ncc(CSc2nnc(-c3ccc([N+](=O)[O-])cc3)o2)c(N=C(NC(C)C)NC(C)C)n1 [Compound A-165] | 10 µg/mL (≈ 21.3 µM)
CCCNC(=Nc1nc(C)ncc1CSc1nnc(-c2ccc([N+](=O)[O-])cc2)o1)NCC.Cl [Compound A-188] | 10 µg/mL
CCNC(N)=Nc1nc(C)ncc1CSc1nnc(-c2ccc([N+](=O)[O-])cc2)o1 [Compound A-185] | 10 µg/mL (≈ 24.1 µM)
CNC(=Nc1nc(C)ncc1CSc1nnc(-c2ccc([N+](=O)[O-])cc2)o1)NC.Cl [Compound A-159] | 10 µg/mL
C#CCNC(=Nc1nc(C)ncc1CSc1nnc(-c2ccc([N+](=O)[O-])cc2)o1)NCC [Compound A-183] | 10 µg/mL (≈ 22.1 µM)
CCCNC(=Nc1nc(C)ncc1CSc1nnc(-c2ccc(N)cc2)o1)NCC [Compound A-167] | 10 µg/mL (≈ 23.4 µM)
CCNC(=Nc1ncncc1CSc1nnc(-c2ccc(N)cc2)o1)NC [Compound A-176] | 10 µg/mL (≈ 26 µM)
CCCNC(=Nc1ncncc1CSc1nnc(-c2ccc([N+](=O)[O-])cc2)o1)NCC [Compound A-179] | 10 µg/mL (≈ 22.6 µM)
CNC(=Nc1ncncc1CSc1nnc(-c2ccc([N+](=O)[O-])cc2)o1)NC [Compound A-173] | 10 µg/mL (≈ 25 µM)
CCCNC(=Nc1nc(CC)ncc1CSc1nnc(-c2ccc(N)cc2)o1)NC [Compound A-151] | 10 µg/mL (≈ 23.4 µM)
Cc1ncc(CSc2nnc(-c3ccc(N)cc3)o2)c(N=C(NC(C)C)NC(C)C)n1 [Compound A-166] | 10 µg/mL (≈ 22.7 µM)
CCNC(=Nc1ncncc1CSc1nnc(-c2ccc([N+](=O)[O-])cc2)o1)NC [Compound A-177] | 10 µg/mL (≈ 24.1 µM)
CCNC(=Nc1ncncc1CSc1nnc(-c2ccc([N+](=O)[O-])cc2)o1)NCC [Compound A-172] | 10 µg/mL (≈ 23.3 µM)
C=CCNC(=Nc1nc(C)ncc1CSc1nnc(-c2ccc([N+](=O)[O-])cc2)o1)NCC [Compound A-181] | 10 µg/mL (≈ 22 µM)
